Data reported in the odorant receptor screen of Mainland et al. (2015).
Where “and” joins values, the source holds several entries; their conditions need not be identical. Identical values can stand only once. The list shows a part of the results. Each value is one well over the wells without odorant, computed here; the data are noisy.

system: OR2A7 clone 1077; assay: odorant receptor activation (CRE luciferase / Renilla) (fold of no-odor wells); higher = more activation; conditions: 100 µM

Question: Which odorant receptor activation does the source give for `CC(C)C(=O)O` [isobutyric acid] here?
Answer: Its odorant receptor activation is 0.855.

Question: With `CC12CCC(CC1)C(C)(C)O2` [cineole] as the compound, how does the odorant receptor activation read?
Answer: Its odorant receptor activation is 0.683.

Question: With `C=CC(C)(O)CCC=C(C)C` (stereo unspecified) [linalool] as the compound, how does the odorant receptor activation read?
Answer: Its odorant receptor activation is 1.03.

Question: Which odorant receptor activation does the source give for `c1cnccn1` [pyrazine] here?
Answer: Its odorant receptor activation is 0.66.

Question: Which odorant receptor activation does the source give for `CC(=O)C(C)=O` [diacetyl] here?
Answer: Its odorant receptor activation is 0.963.

Question: With `CC/C=C\CCO` [cis-3-hexen-1-ol] as the compound, how does the odorant receptor activation read?
Answer: The odorant receptor activation was 0.902.

Question: For `CC1=CCC(C(C)(C)O)CC1` (stereo unspecified) [terpineol], which odorant receptor activation is on record?
Answer: Its odorant receptor activation is 0.698.

Question: Which odorant receptor activation does the source give for `CCCCCCCCOC(C)=O` [octyl acetate] here?
Answer: Its odorant receptor activation is 0.878.

Question: With `CCCCO` [1-butanol] as the compound, how does the odorant receptor activation read?
Answer: The odorant receptor activation was 3.29.

Question: `O=C1CCCCCCCCCCCC(=O)OCCO1` [ethylene brassylate] was tested. Which odorant receptor activation did it give?
Answer: The odorant receptor activation was 1.59.

Question: For `CC1CCC(C(C)C)C(O)C1` (single isomer, unassigned; (-)) [(-)-menthol], which odorant receptor activation is on record?
Answer: The odorant receptor activation was 3.54.

Question: `COC(=O)c1ccccc1O` [methyl salicylate] was tested. Which odorant receptor activation did it give?
Answer: Its odorant receptor activation is 1.01.

Question: With `CC1CCC(C(C)C)C(O)C1` (single isomer, unassigned; (+)) [(+)-menthol] as the compound, how does the odorant receptor activation read?
Answer: The odorant receptor activation was 3.89.

Question: Which odorant receptor activation does the source give for `C=CCc1ccc(O)c(OC)c1` [eugenol] here?
Answer: The odorant receptor activation was 0.675 and 1.32.

Question: For `C=C(C)C1CC=C(C)C(=O)C1` (stereo unspecified) [r-carvone], which odorant receptor activation is on record?
Answer: The odorant receptor activation was 0.837.

Question: For `CC(=O)OCC=C(C)CCC=C(C)C` [geranyl acetate], which odorant receptor activation is on record?
Answer: Its odorant receptor activation is 2.31.

Question: `CCCCCCOC(=O)CCC` [hexyl butyrate] was tested. Which odorant receptor activation did it give?
Answer: The odorant receptor activation was 0.918.

Question: How did the odorant receptor activation turn out when `CC(C)CCC(=O)O` [4-methylvaleric acid] was run?
Answer: Its odorant receptor activation is 1.51.

Question: For `c1ccc(Oc2ccccc2)cc1` [diphenyl ether], which odorant receptor activation is on record?
Answer: Its odorant receptor activation is 1.04.

Question: For `COc1cc(C=O)ccc1O` [vanillin], which odorant receptor activation is on record?
Answer: The odorant receptor activation was 0.596.

Question: Which odorant receptor activation does the source give for `CC(=O)OC(C)(C)C1CC=C(C)CC1` (stereo unspecified) [terpinyl acetate] here?
Answer: Its odorant receptor activation is 1.51.
